The values below come from the supplement of paper PMC3682954.

The experiment concerns RAW 264.7. Description: cell viability (MTT) relative to vehicle control; higher = more viable cells. The note with it: stimulus: HMGB1 5 ug/ml, 18 h.
[1] abbreviates: compound concentration: 1 ug/ml.

“And” between values parts separate entries of the source, which are not always exact repeats. Identical values can stand only once. Counter-ions that a name gives are not always drawn. ± gives the standard deviation of the averaged measurements. The list shows a part of the results. Many values rest on one well or one pass, so single values are uncertain.

Turning to `CC(C)CC(N(C)C)C1(c2ccc(Cl)cc2)CCC1` (centres undefined), the cell viability (compound concentration: 3 uM) is 104% and 100%.
Consider `CC(C)CC(N(C)C)C1(c2ccc(Cl)cc2)CCC1` (centres undefined) [Sibutramine HCl], for which the cell viability (compound concentration: 3 uM) was 89.2%.
On to `CNC1(c2ccccc2Cl)CCCCC1=O` (centres undefined), for which the cell viability (compound concentration: 3 uM) was determined as 115%.
Turning to `COc1ccc(CC2c3cc(OC)c(OC)cc3CCN2C)cc1OC` (centres undefined) [Laudanosine], the cell viability under setting [1] came to 95.2%.
Regarding `NC(N)=NOCC[C@H](N)C(=O)O` [L-Canavanine sulfate], the cell viability (compound concentration: 3 uM) is 108%.
With `NC(N)=NOCC[C@H](N)C(=O)O` [L-Canavanine], for the setting “compound concentration: 3 uM”, the cell viability was determined as 104%.
The same measure, in the same setting: the figure for `NC(N)=NOCC[C@H](N)C(=O)O` is 98%; for `N[C@@H](Cn1oc(=O)[nH]c1=O)C(=O)O` [(+)-Quisqualic acid] it is 93.9%.
Turning to `C#CCN(C)C(C)Cc1ccccc1` (centres undefined) [Deprenyl HCl], for the setting “compound concentration: 3 uM”, the cell viability came out at 105 ± 4.9%.
As to `C[N+]1(CCC(C(N)=O)(c2ccccc2)c2ccccc2)CCCCC1`, where the note is “compound concentration: 3 uM”, the cell viability was found to be 98.4%.
On the same count and under the same terms, next, `S=C(NC1CCCCC1)N1CCC(c2cnc[nH]2)CC1` [Thioperamide maleate]: 112 ± 10%; `O=C([O-])Cc1ccccc1.[Na+]` [Sodium Phenylacetate]: 101%.
Consider `C[C@]12CC[C@H]3[C@@H](CC[C@]4(O)C[C@@H](O)CC[C@]34C=O)[C@@]1(O)CC[C@@H]2C1=CC(=O)OC1` [Strophanthidin], for which the cell viability under setting [1] is 105%.
As for `NC(=O)CN1CCCC1=O`, for the setting “compound concentration: 3 uM”, the cell viability stood at 113%.
Turning to `NC(=O)CN1CCCC1=O` [Piracetam], for the setting “compound concentration: 3 uM”, the cell viability turned out to be 92.3 ± 16%.
Still for that read-out and setting: the figure for `COc1cc2c(cc1OC)C(C)NCC2` (centres undefined) is 79%; for `NCc1cc(O)no1` [Muscimol hydrobromide] it is 103%; for `C=CCN1C[C@H](C(=O)N(CCCN(C)C)C(=O)NCC)C[C@@H]2c3cccc4[nH]cc(c34)C[C@H]21` [Cabergoline] it is 96.2%.
Consider `Oc1ccc2c3c1O[C@H]1c4oc5ccccc5c4C[C@@]4(O)[C@@H](C2)N(CC2CC2)CC[C@]314` [Naltriben methanesulfonate hydrate], for which the cell viability (compound concentration: 3 uM) is 112%.
Take `Oc1ccc2c3c1O[C@H]1c4oc5ccccc5c4C[C@@]4(O)[C@@H](C2)N(CC2CC2)CC[C@]314` [Naltriben methanesulfonate]: the cell viability (compound concentration: 3 uM) turned out to be 105%.
Same read-out and setting: the figure for `O=P1(NCCCl)OCCCN1CCCl` (centres undefined) is 101 ± 4.6%.
On to `O=P1(NCCCl)OCCCN1CCCl` (centres undefined) [Ifosfamide], for which the cell viability (compound concentration: 3 uM) was 99.6 ± 1.1%.
For `Oc1ccc(Cl)cc1`, the cell viability (compound concentration: 3 uM) turned out to be 104%.
The same measure, in the same setting: the figure for `CN1CC[C@@]2(C)c3cc(OC(=O)Nc4ccccc4)ccc3N(C)[C@@H]12` [Phenserine] is 99.3%; for `N#CCCN` [3-Aminopropionitrile fumarate] it is 103%; for `CC(C)c1c(CN(C)C(C)Cc2ccccc2)n(C)n(-c2ccccc2)c1=O` (centres undefined) [Famprofazone] it is 109%.
Same read-out and setting: next, `CC(C)c1c(CN(C)C(C)Cc2ccccc2)n(C)n(-c2ccccc2)c1=O` (centres undefined): 113%; `C=C(C)[C@@H]1[C@H]2OC(=O)[C@@H]1[C@]1(O)C[C@H]3O[C@]34C(=O)O[C@H]2[C@]14C`: 99.1%.
In the case of `C=C(C)[C@@H]1[C@H]2OC(=O)[C@@H]1[C@]1(O)C[C@H]3O[C@]34C(=O)O[C@H]2[C@]14C` [Picrotoxinin], the cell viability is, setting by setting: under setting [1], 94%; (compound concentration: 3 uM) 109%.
Turning to `CC(C)NP(=O)(NC(C)C)OP(=O)(NC(C)C)NC(C)C` [Tetraisopropyl pyrophosphoramide], where the note is “compound concentration: 3 uM”, the cell viability was 115%.
Still for that read-out and setting: the figure for `C=CCc1ccccc1OCC(O)CNC1(C)CCC(C(C)(C)NC(=O)CBr)CC1` (centres undefined) [Bromoacetyl alprenolol menthane] is 79.2%; for `CC(=O)OCC(=O)[C@H]1CC[C@H]2[C@@H]3CC[C@H]4C[C@H](O)CC[C@]4(C)[C@H]3C(=O)C[C@]12C` [Alfadolone acetate] it is 72.4%.
On to `Cc1c2ccncc2c(C)c2c1[nH]c1ccccc12` [Ellipticine], for which, for the setting “compound concentration: 3 uM”, the cell viability stood at 94.7%.
Same read-out and setting: next, `CC(=O)NBr` [N-Bromoacetamide]: 98.4%; `NC(=O)C[S+]([O-])C(c1ccccc1)c1ccccc1` (centres undefined): 108%.
Turning to `NC(=O)C[S+]([O-])C(c1ccccc1)c1ccccc1` (centres undefined) [Modafinil], the cell viability (compound concentration: 3 uM) turned out to be 106 ± 7.9%.
On the same count and under the same terms, next, `C=C1[C@@H](C)[C@H]2[C@H](Cc3ccccc3)NC(=O)[C@]23OC(=O)/C=C/[C@H](O)CCC[C@@H](C)C/C=C/[C@H]3[C@@H]1O`: 105%; `CN1CCN(C(=O)OC2c3nccnc3C(=O)N2c2ccc(Cl)cn2)CC1` (centres undefined) [Zopiclone]: 107%.
On to `CN1CCN(C(=O)OC2c3nccnc3C(=O)N2c2ccc(Cl)cn2)CC1` (centres undefined), for which the cell viability (compound concentration: 3 uM) turned out to be 112%.
Still for that read-out and setting: the figure for `Clc1ccc(C(OCCN2CCCCC2)c2ccccc2)cc1` (centres undefined) is 112%; for `Clc1ccc(C(OCCN2CCCCC2)c2ccccc2)cc1` (centres undefined) [Cloperastine hydrochloride] it is 131%.
As for `C[C@@H](CO)NC(=O)[C@@H]1C=C2c3cccc4[nH]cc(c34)C[C@H]2N(C)C1` [Ergonovine], the cell viability under setting [1] is 102%.
Take `C[C@@H](CO)NC(=O)[C@@H]1C=C2c3cccc4[nH]cc(c34)C[C@H]2N(C)C1`: the cell viability (compound concentration: 3 uM) was determined as 107%.

Broadly, the cell viability is a read-out of living cells in per cent, often relative to untreated cells.
